Results: PubChem BioAssay (Tox21)
Several values for one entry are separate records, joined by “and”; a condition that tells them apart may be missing. Equal entries are not always repeated. This list was built around the results that the source calls inconclusive (neither active nor inactive); the mix of calls is not that of the screen. A potency beside an inconclusive call is a rough fit, not a confirmed value. Activity calls are given as the source filed them. Unless noted, calls follow the shape of the full dose curve.

Sequences of proteins named here, by UniProt entry; tags and fusion partners are left off. A change or cut given only in a name is not applied to a line headed by its entry.
UniProt P14416, whole entry, looked up: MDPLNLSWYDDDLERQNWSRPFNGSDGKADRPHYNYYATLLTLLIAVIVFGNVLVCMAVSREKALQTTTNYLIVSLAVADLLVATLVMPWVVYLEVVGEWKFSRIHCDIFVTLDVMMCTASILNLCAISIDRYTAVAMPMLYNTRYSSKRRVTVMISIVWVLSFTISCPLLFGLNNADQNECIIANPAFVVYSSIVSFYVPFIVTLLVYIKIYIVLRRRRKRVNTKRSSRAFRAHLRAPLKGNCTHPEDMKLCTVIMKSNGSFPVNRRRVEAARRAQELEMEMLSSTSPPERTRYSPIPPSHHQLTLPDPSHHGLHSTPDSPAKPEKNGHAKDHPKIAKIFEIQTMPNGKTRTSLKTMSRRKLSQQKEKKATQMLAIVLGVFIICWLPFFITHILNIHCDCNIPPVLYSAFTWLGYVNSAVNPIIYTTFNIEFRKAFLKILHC
UniProt P30968: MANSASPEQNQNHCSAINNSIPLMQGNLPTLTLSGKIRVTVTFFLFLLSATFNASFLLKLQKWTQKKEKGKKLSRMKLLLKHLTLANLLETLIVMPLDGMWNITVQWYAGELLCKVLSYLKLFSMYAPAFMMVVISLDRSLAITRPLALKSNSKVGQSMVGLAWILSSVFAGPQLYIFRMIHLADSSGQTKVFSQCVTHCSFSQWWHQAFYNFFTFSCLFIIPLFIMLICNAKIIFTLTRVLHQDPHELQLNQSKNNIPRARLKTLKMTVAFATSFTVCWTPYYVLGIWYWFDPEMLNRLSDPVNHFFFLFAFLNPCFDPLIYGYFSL
UniProt Q969F8, whole entry, looked up: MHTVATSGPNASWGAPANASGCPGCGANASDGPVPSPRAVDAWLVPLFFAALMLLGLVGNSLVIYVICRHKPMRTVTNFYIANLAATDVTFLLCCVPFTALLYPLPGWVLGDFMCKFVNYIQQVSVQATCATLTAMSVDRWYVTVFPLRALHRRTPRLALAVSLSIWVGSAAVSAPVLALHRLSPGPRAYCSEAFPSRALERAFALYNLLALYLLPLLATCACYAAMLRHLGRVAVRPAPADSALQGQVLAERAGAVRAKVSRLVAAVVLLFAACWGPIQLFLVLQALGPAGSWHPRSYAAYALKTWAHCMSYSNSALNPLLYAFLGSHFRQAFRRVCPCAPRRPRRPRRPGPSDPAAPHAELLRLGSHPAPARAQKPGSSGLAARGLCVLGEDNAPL
UniProt P28223, whole entry, looked up: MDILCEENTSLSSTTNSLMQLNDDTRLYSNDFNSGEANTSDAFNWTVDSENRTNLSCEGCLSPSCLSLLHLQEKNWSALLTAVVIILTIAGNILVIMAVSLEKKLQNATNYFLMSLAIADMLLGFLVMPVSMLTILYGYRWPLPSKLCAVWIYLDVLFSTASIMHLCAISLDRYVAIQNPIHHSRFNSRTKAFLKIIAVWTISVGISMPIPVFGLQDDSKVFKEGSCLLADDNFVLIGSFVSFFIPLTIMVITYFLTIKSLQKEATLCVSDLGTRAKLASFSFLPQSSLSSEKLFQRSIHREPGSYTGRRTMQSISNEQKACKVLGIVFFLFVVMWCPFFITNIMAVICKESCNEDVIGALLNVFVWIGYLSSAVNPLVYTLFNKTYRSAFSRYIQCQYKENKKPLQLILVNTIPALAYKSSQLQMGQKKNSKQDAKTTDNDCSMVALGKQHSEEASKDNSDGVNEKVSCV
UniProt P11229: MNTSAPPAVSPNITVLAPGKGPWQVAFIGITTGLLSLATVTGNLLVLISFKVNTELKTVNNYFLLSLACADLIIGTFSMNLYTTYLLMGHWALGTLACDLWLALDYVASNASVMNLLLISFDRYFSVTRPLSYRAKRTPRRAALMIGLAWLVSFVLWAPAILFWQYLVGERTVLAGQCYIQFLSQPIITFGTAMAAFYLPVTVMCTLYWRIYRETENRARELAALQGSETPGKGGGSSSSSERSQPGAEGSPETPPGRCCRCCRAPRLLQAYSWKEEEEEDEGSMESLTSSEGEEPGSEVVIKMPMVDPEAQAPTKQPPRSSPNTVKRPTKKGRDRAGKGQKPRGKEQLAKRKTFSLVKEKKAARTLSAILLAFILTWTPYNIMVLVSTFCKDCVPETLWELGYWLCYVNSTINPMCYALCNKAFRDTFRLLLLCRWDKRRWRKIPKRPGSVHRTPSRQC

Experiments:
[1] = Nuclear factor erythroid 2-related factor 2/antioxidant responsive element (Nrf2/ARE) small molecule agonists: luciferase reporter gene qHTS assay in human keratinocytes (AID 1919969); details: KeratinoSens HaCaT ARE-luciferase, luminescence, 24 h; activity, positive = activation: at 92.4 µM (top of the series); also: nearly all actives have a fitted effect of over 35% in size; as to activity, positive = activation: % is scaled to controls: 0 for no effect and ±100 for the full control effect
[2] = target: Beta-2 adrenergic receptor (Homo sapiens) (UniProt P07550); test: Adrenergic beta2 receptor (ADRB2) small molecule agonists, cell-based qHTS assay (AID 1963593); details: CHO-ADRB2 cells, cAMP HTRF, 30 min;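 as to activation: CHO cells stably overexpressing human ADRB2; % is scaled to controls: 0 for no effect and ±100 for the full control effect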
Procedure, shortened: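 CHO cells stably over-expressing ADRB2 were plated overnight at 37C, then dosed with compounds plus a stimulation mix containing 100uM IBMX and 25uM Ro-20-1724 for 0.5hr at room temperature. cAMP was measured by HTRF competition, 1hr.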

[3] = target: D(2) dopamine receptor (Homo sapiens) (UniProt P14416); test: Dopamine D2 receptor (DRD2) small molecule agonists, cell-based qHTS assay (AID 1963594); details: HEK293-DRD2 cAMP HTRF, agonist mode, 30 min; activation: at 92.4 µM (top of the series) unless noted; also: nearly all actives have a fitted effect of over 35% in size; as to activation: % is scaled to controls: 0 for no effect and ±100 for the full control effect
Procedure, shortened: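 HEK293 cells stably expressing DRD2 were cultured 24 h at 37 C, then given Ro20-1724 (0.1 mM final) and compounds for 10 min at room temperature. NKH477 (200nM) was then added for 30 min. cAMP was read by HTRF.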

[4] = target: Gonadotropin-releasing hormone receptor (Homo sapiens) (UniProt P30968); test: Human gonadotropin-releasing hormone receptor (GnRHR) small molecule agonists, calcium flux assay in GnRHR-HEK293 cells (AID 1920063); details: calcium flux fluorescence, agonist mode; activity change: at 57.6 µM (top of the series), stronger effect = higher value unless noted; also: nearly all actives have a fitted effect of over 35% in size
Procedure, shortened: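 Tox21-format agonist screen using human GnRHR-expressing HEK293 cells and a fluorescent calcium dye; kinetic 3-min fluorescence reading after compound addition, 15-point concentration series run in triplicate.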

[5] = target: KiSS-1 receptor (Homo sapiens) (UniProt Q969F8); test: Human kisspeptin (KISS1R) small molecule agonists, calcium flux assay in KISS1R-HEK293 cells (AID 1920064; active = well fitted activation curve with a large enough effect in the repeat runs; inconclusive = weak or mixed curves)
Procedure, shortened: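 Intracellular calcium mobilization in KISS1R-HEK293 cells was recorded by fluorescence (Ex/Em 480/540) for 3 min following compound addition to cells pre-loaded 1 h with calcium dye.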

[6] = p53 small molecule agonists, cell-based qHTS assay (AID 1963582; active = well fitted activation curve with a large enough effect in the signal ratio in the repeat runs, not every such curve was filed as active; inconclusive = weak or mixed curves; the % refers to the signal ratio); details: HCT-116 p53RE-bla reporter, beta-lactamase FRET ratio, 16 h; activation: at 66 µM (top of the series) unless noted
Procedure, shortened: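 Agonist activity was scored from beta-lactamase FRET fluorescence in p53RE-bla cells treated 16 h at 37 C with compounds in DMSO, substrate incubation being 2 h at room temperature.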

[7] = p53 small molecule agonists, cell-based qHTS assay with human liver microsomes (AID 1963577); details: HCT-116 p53RE-bla with human liver microsomes, ratio, 16 h; activation: at 66 µM (top of the series) unless noted
Procedure, shortened: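 Steps: plate p53RE-bla cells, incubate 5 h at 37 C; add compound in DMSO; add microsomes (0.5 mg/mL final) and NADPH (0.5 mg/mL final); incubate 16 h at 37 C; add LiveBLAzer, 2 h RT; read fluorescence.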

[8] = p53 small molecule agonists, cell-based qHTS assay with human liver microsomes: qHTS cell viability counter screen (AID 1963579); also: nearly all actives have a fitted effect of over 45% in size
Procedure, shortened: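 After the 460/530 nm beta-lactamase read, CellTiter-Glo was added to the same wells and luminescence measured after 30 min at room temperature, giving viability of p53RE-bla cells treated 16 h with compounds plus microsomes and NADPH.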

[9] = p53 small molecule agonists, cell-based qHTS assay with rat liver microsomes: qHTS cell viability counter screen (AID 1963580); also: nearly all actives have a fitted effect of over 45% in size
Procedure, shortened: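 In HCT-116 cells carrying a p53 response element-bla reporter, compounds were metabolically activated in situ by rat liver microsomes with NADPH over 16 h. Cell ATP content then served as the cytotoxicity measure.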

[10] = cAMP Responsive Elements (CRE) small molecule agonists, cell-based qHTS assay (AID 1963590); details: CRE-bla HEK293T, beta-lactamase FRET ratio, 3 h; activation: at 92.4 µM (top of the series) unless noted
Procedure, shortened: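 FRET-based beta-lactamase readout (LiveBLAzer B/G, 2 h RT) quantified CRE activation in HEK 293T CRE-bla cells after 3 h treatment with DMSO-dissolved compounds.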

[11] = cAMP Responsive Elements (CRE) small molecule antagonists, cell-based qHTS assay (AID 1963591; active = well fitted inhibition curve with a large enough effect in the signal ratio in the repeat runs, not every such curve was filed as active; inconclusive = weak or mixed curves, or effect the other way; the % refers to the signal ratio); details: CRE-bla HEK293T, beta-lactamase FRET ratio; activity change, negative = inhibition: at 92.4 µM (top of the series) unless noted
Procedure, shortened: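 qHTS in CRE-bla HEK 293T cells: compound in DMSO, then 0.25 uM NKH477 (final), 3 h at 37 °C/5% CO2; beta-lactamase FRET read-out after 2 h substrate incubation.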

[12] = target: D(2) dopamine receptor (Homo sapiens) (UniProt P14416); test: Dopamine D2 receptor (DRD2) small molecule antagonists, cell-based qHTS assay (AID 1963595; active = well fitted inhibition curve with a large enough effect in the signal ratio in the repeat runs, with a control signal flat; inconclusive = weak or mixed curves, or effect the other way; the % refers to the signal ratio; as to activity change, negative = inhibition: % is scaled to controls: 0 for no effect and ±100 for the full control effect); details: HEK293-DRD2 cAMP HTRF antagonist mode
Procedure, shortened: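 Antagonist mode in DRD2-HEK293 cells: after compound addition with 0.1 mM Ro20-1724, cells received quinpirole (12 nM) and NKH477 (200 nM) for 30 min at room temperature; HTRF cAMP read after 1 h detection.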

[13] = target: 5-hydroxytryptamine receptor 2A (Homo sapiens) (UniProt P28223); test: 5-hydroxytryptamine receptor 2A (HTR2A) small molecule antagonists, cell-based qHTS assay (AID 1963586); also: nearly all actives have a fitted effect of over 45% in size
Procedure, shortened: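 Antagonist-mode intracellular calcium assay: DOI (4 nM) added after 5 min compound pre-incubation at room temperature to dye-loaded HTR2A-CHO cells. Fluorescence followed for 3 min, sampled every second.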

[14] = target: 5-hydroxytryptamine receptor 2A (Homo sapiens) (UniProt P28223); test: 5-hydroxytryptamine receptor 2A (HTR2A) small molecule agonists, cell-based qHTS assay (AID 1963587); also: nearly all actives have a fitted effect of over 30% in size
Procedure, shortened: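 HTR2A-CHO cells, plated 18 h at 37 C/5% CO2, dye-loaded 1 h at 37 C; compounds in DMSO added by pin tool (agonist mode). Intracellular calcium flux read as kinetic fluorescence on FDSS over 2 min at 1 s intervals.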

[15] = target: Beta-2 adrenergic receptor (Homo sapiens) (UniProt P07550); test: Adrenergic beta2 receptor (ADRB2) small molecule antagonists, cell-based qHTS assay (AID 1963592); details: CHO-ADRB2 cells, isoproterenol-stimulated cAMP HTRF ratio, 0.5 h; activity change, negative = inhibition: at 92.4 µM (top of the series) unless noted; also: nearly all actives have a fitted effect of over 50% in size
Procedure, shortened: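 Cells (CHO, stable ADRB2 overexpression) incubated 18-20hr at 37C; compounds added from DMSO; agonist mix (1nM isoproterenol, 100uM IBMX, 25uM Ro-20-1724) added; 0.5hr RT; d2-cAMP and anti-cAMP-cryptate added; 1hr RT; 665/615 nm read.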

[16] = p53 small molecule agonists, cell-based qHTS assay: qHTS cell viability counter screen (AID 1963581); also: nearly all actives have a fitted effect of over 45% in size
Procedure, shortened: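 Compounds are pinned onto HCT-116 p53RE-bla cells and left 16 h at 37 C. Following the reporter FRET read, ATP is quantified by CellTiter-Glo luminescence after 30 min at room temperature.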

[17] = target: Muscarinic acetylcholine receptor M1 (Homo sapiens) (UniProt P11229); test: Cholinergic receptor muscarinic 1 (CHRM1) small molecule agonists, cell-based qHTS assay (AID 1963589); also: nearly all actives have a fitted effect of over 35% in size
Procedure, shortened: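 Stable CHRM1-CHO cells (human receptor) were incubated 18 h, dye-loaded for 1 h at 37 C and exposed to test compounds for agonist activity, with calcium-dependent fluorescence followed kinetically.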

[18] = activation: at 92.4 µM (top of the series) unless noted
[19] = activity change, negative = inhibition: at 92.4 µM (top of the series) unless noted
Potency is read from the fitted curve at half-maximal effect.

In the case of CS(=O)(=O)c1ccc(Cl)cc1, the Potency [1] is reported as inconclusive: 61.1 µM [activator, partial curve, poor fit], the Potency [2, 18] is reported as inconclusive: 6.14 µM [inhibitor, single point] and inactive and the Potency [3] is reported as “inactive”.

For Cc1cccc(C)c1NC(=O)C(C)N (stereo not drawn), the Potency [4] was inconclusive: 19 µM [activator, single point], the Potency [5] was inconclusive: 26.8 µM [activator] and the Potency [6] was inconclusive: 0.0707 µM [falling, full curve, poor fit].

With C=COCC(C)C the Potency [1] was “inactive” and the Potency [3] was “inactive”.

In the case of NC(=Nc1ccccc1)Nc1ccccc1, the Potency [4] is reported as active: 5.49 µM and active: 15.1 µM, the Potency [5] is reported as active: 21.4 µM and active: 23.9 µM and the Potency [7] is reported as inconclusive: 51.3 µM [fluorescent, partial curve, poor fit] and inconclusive: 22.3 µM [fluorescent, single point]. For the same compound, the Potency [8] was inconclusive: 7.25 µM, the Potency [9] was inconclusive: 20.4 µM and the Potency [6] was inconclusive: 10.2 µM. The Potency [10] was inconclusive: 27.3 µM [rising, partial curve, poor fit], the Potency [11] was inconclusive: 19 µM [activator] and the activation ([2]; at 42.5 µM (top of the series)) was inconclusive: 13.7%. For the same compound, the activation ([2]; at 92.4 µM (top of the series)) was inconclusive: 4.63%, the Potency [3] was inconclusive: 68.6 µM [rising, single point] and the activity change, negative = inhibition [12, 19] was inconclusive: 8.55%. The activity change, negative = inhibition ([12]; at 42.5 µM (top of the series)) was inactive: 11.5%.

With NC[C@H](O)c1ccc(O)c(O)c1 the Potency [4] was inconclusive: 11 µM [activator, partial curve, poor fit], the Potency [5] was inconclusive: 21.9 µM [activator, partial curve, poor fit] and the Potency [9] was “inactive”. For the same compound, the Potency [13] was inconclusive: 0.0918 µM [inhibitor, partial curve, poor fit], the Potency [14] was inconclusive: 26.8 µM [activator, single point] and the Potency [10] was inconclusive: 15.4 µM [activator, full curve] and inconclusive: 8.41 µM [activator, full curve, poor fit]. For the same compound, the activity change, negative = inhibition [11] was inconclusive: 18.1% [at 42.4 µM], the Potency [3] was active: 16.6 µM and inconclusive: 5.96 µM and the Potency [12, 19] was inconclusive: 33.5 µM [inhibitor, single point]. For the same compound, the activity change, negative = inhibition [12, 19] was inconclusive: -18.4%.

In the case of O=C(Cl)c1ccc(Cl)cc1Cl, the Potency [4] is reported as inconclusive: 43.6 µM [activator, single point], the Potency [5] is reported as inconclusive: 54.9 µM [activator, single point] and the Potency [6] is reported as “inactive”. For the same compound, the Potency [10] was “inactive”, the Potency [11] was “inactive” and the Potency [15] was “inactive”. For the same compound, the Potency [2, 18] was “inactive” and the activity change, negative = inhibition [12, 19] was inconclusive: -1.39%.

In the case of Nc1ccc2c(c1)CN1C(=O)c3ccccc3C1=N2, the Potency [4] is reported as active: 6.57 µM, the Potency [5] is reported as inconclusive: 11.7 µM [activator] and the Potency [16] is reported as inconclusive: 7.73 µM [cytotoxic, partial curve, poor fit]. For the same compound, the activation [6] was inconclusive: 16.5% [at 13.5 µM], the Potency [13] was inconclusive: 0.004 µM [inhibitor, full curve, poor fit] and the Potency [10] was inconclusive: 13 µM [rising, partial curve]. The Potency [11] was inconclusive: 11.6 µM [rising, partial curve] and the Potency [3] was inconclusive: 14.6 µM [rising, partial curve, poor fit].

With C[C@@H](NCCCc1cccc(C(F)(F)F)c1)c1cccc2ccccc12 the Potency [4] was inconclusive: 16.9 µM [activator], the Potency [5] was inconclusive: 23.9 µM [activator, partial curve, poor fit] and the Potency [16] was inconclusive: 22.3 µM [cytotoxic, single point]. The Potency [13] was inconclusive: 11.6 µM [inhibitor, partial curve, poor fit], the Potency [14] was active: 23.9 µM and the Potency [17] was inconclusive: 30.1 µM [rising, partial curve, poor fit]. For the same compound, the Potency [10] was inconclusive: 33.5 µM, the Potency [11] was inconclusive: 29.8 µM and the Potency [15] was inconclusive: 26.6 µM [inhibitor, partial curve]. The Potency [2, 18] was inconclusive: 29.8 µM [inhibitor] and the Potency [12, 19] was inconclusive: 33.5 µM [inhibitor, single point].

With CCCCCCCCCCCCCCCCN the Potency [4] was inconclusive: 19 µM [activator, single point], the Potency [5] was inconclusive: 26.8 µM [activator, single point] and the Potency [6] was “inactive”. For the same compound, the activation [2, 18] was inconclusive: 5.1% [at 42.5 µM] and the activity change, negative = inhibition [12, 19] was inconclusive: 11.1% [at 42.5 µM].
